# Results from PubChem BioAssay AID2685 (National Center for Advancing Translational Sciences (NCATS), 2010).
# The other results are listed elsewhere or left out. These are further read-outs of the screen, such as a control signal, another cell line or another target. No call is given for them. The list favours compounds with an active or inconclusive main result. Potencies come from curve fits of mixed quality, noted in brackets.
# Experiment: qHTS Assay for Lipid Storage Modulators in Drosophila S3 Cells;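 as to cell number change: cells counted by Cell Tracker Red CMTPX staining in the red channel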
# Conditions: BODIPY lipid droplet fluorescence, 18-24 h; for cell number change: measured here: cell count max response, cells fed with added oleic acid
# Method in brief: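 Drosophila S3 cells got compounds at several concentrations plus oleic acid (400 uM solution). Laser-scanning cytometry with 488 nm excitation read lipid droplets at 500-530 nm and cells at 575-640 nm. Percent activity was relative to 20 uM Triacsin C.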
# [1] = measured here: lipid fluorescence (Fed channel) AC50, cells fed with added oleic acid
# [2] = measured here: cell number channel AC50, cells fed with added oleic acid
Compound,cell number change,AC50 [1],AC50 [2]
O=C(Nc1ccc2c(c1)C(=O)NC2=O)c1ccccc1Cl,9.28%,,
NS(=O)(=O)c1ccc(CNC(=O)c2cc(-c3cccnc3)nc3ccccc23)cc1,10.4%,"14.6 µM [rising, partial curve]",
COC(=O)Nc1nnc(/C=C/c2ccccc2)s1,2.66%,"13 µM [rising, partial curve, poor fit]",
COc1ccc(NC(=S)NNC(=O)c2ccc(S(=O)(=O)N3CCOCC3)cc2)cc1,,,"1.16 µM [falling, single point]"
COc1ccc(Cl)cc1S(=O)(=O)NCc1ccncc1,23.9%,"0.00517 µM [rising, full curve]",
O=C(N/N=C/c1cccs1)c1[nH]ncc1Br,18.8%,"5.8 µM [falling, partial curve, poor fit]",
CCn1ncc(S(=O)(=O)Nc2cccnc2)c1C,18.1%,,
N=C(N)CCCOc1ccccc1-c1ccccc1,-5.16%,,
Cc1ccc(Nc2nc(Nc3ccc(C)cc3)nc(SC3=NCCS3)n2)cc1,,"0.58 µM [rising, single point]",
Cc1ccc(CN2CCN(C(=O)CCc3ccccc3)CC2)cc1,9.68%,,
O=C(CSc1nnc(-c2ccccc2O)o1)Oc1ccc(Br)cc1,-52.5%,"18.4 µM [falling, single point]","29.1 µM [falling, single point]"
COC(=O)c1ccc(NC(=S)Nc2ccc3ccccc3c2)cc1,27.1%,"29.1 µM [rising, single point]",
CC1(C)Cc2c(c(=S)nc(-c3ccccc3)n2CCCN2CCOCC2)CO1,,,"6.51 µM [falling, single point]"
CCOC(=O)c1c(NC(=O)CN2C(=O)NC3(CCCCCC3)C2=O)sc(C)c1-c1ccc(C)cc1,-62.9%,"6.51 µM [rising, partial curve]","14.6 µM [falling, partial curve]"
CCc1ccc(NC(=O)CC2S/C(=N/N=C3CCCCCC3)NC2=O)cc1 (stereo not drawn),-13.5%,"29.1 µM [rising, single point]",
OCCSc1ncnc2c1oc1ccccc12,-2.3%,,
Cn1cc(C(=O)Nc2ccccn2)c(=O)c2ccccc21,-6.94%,,
Nc1nnc(CSc2ccc(Cl)cc2)s1,17.4%,"2.06 µM [rising, partial curve]","3.26 µM [rising, partial curve]"
Cc1ccc(S(=O)(=O)N2CCCCC2)cc1NC(=O)COc1ccccc1F,47.9%,"0.731 µM [rising, partial curve]","10.3 µM [rising, partial curve]"
CN(CCOC(=O)c1cccc(F)c1)Cc1ccccc1,-3.98%,"6.51 µM [falling, single point]","3.66 µM [falling, single point]"
CCC(C)C1Nc2ccc(C(=O)NCCc3ccc(OC)c(OC)c3)cc2NC1=O (stereo not drawn),7.69%,"25.9 µM [falling, partial curve, poor fit]",

Compound,cell number change,AC50 [1],AC50 [2]
COc1ccccc1-c1noc(CSc2nc(C)cc(=O)[nH]2)n1,3.87%,"2.31 µM [rising, partial curve]",
CCCCOc1cccc(C(=O)NNC(=S)NC2CCCCC2)c1,-33.5%,"20.6 µM [falling, single point]","29.1 µM [falling, single point]"
Cc1cc(C(=O)COc2ccc3ccc(=O)oc3c2)c(C)n1C,110%,,"16.4 µM [rising, partial curve]"
COc1cc(C(=O)NCc2ccccc2)cc(Br)c1OC,-1.09%,"1.46 µM [rising, partial curve, poor fit]",
Cc1cccc(OCC(=O)OC(C)C(=O)Nc2ccc(S(=O)(=O)N3CCCCC3)cc2)c1 (stereo not drawn),0.209%,"6.51 µM [falling, single point]",
CCCCOC(=O)C1C2C=C[C@]3(CN(CCCOC)C(=O)[C@H]13)O2 (stereo partly drawn),4.24%,,
CCN1CCN(C(=O)CCc2nnc3ccc(N4CCN(c5cccc(OC)c5)CC4)nn23)CC1,-6.87%,"1.3 µM [falling, partial curve]",
Cc1nc(NC(=O)CSc2nnc(C)n2CC2CCCO2)sc1C (stereo not drawn),31%,,"6.51 µM [rising, partial curve]"
Cc1ccc(C2C(C#N)=C(N)Oc3n[nH]c(-c4cccs4)c32)cc1 (stereo not drawn),-48.8%,"16.4 µM [falling, single point]","14.6 µM [falling, partial curve]"
CN(C(=O)CSc1ccncc1)C1CCCN(Cc2ccccc2F)C1 (stereo not drawn),-36.9%,,"2.91 µM [falling, partial curve]"
COc1ccc2cc3cc(C(=O)N4CCN(C5CCCCC5)CC4)oc3nc2c1,-19.8%,,
COCn1c(-c2cccc(Br)c2)nc2ccccc21,-8.8%,"6.51 µM [rising, single point]",
N#CC1=C(N)Oc2cc(N)ccc2C1c1ccccc1Cl (stereo not drawn),-4.21%,,
Cc1nnc(SCC(=O)NC2CCCCCC2)n1N,-18.4%,,
COc1cccc(N2CCN(CC(=O)NC3=Nc4ccccc4N=C(C)C3c3ccccc3)CC2)c1 (stereo not drawn),4.65%,"0.058 µM [falling, full curve, poor fit]",
Cc1cc(C(=O)NCC(=O)OCC(=O)N(C2CCCCC2)C2CCCCC2)ccc1[N+](=O)[O-],4.31%,"0.00461 µM [falling, full curve, poor fit]",
CCN(CC)c1ccc(/C=N/NC(=O)CNC(=O)/C=C/c2ccco2)cc1,7.62%,,
Cc1ccc(NC(=O)NC(=O)c2ccccc2)cc1F,10.3%,,
Cn1c(=O)c2c(nc(NCc3cccnc3)n2Cc2ccc(Cl)cc2)n(C)c1=O,137%,"0.461 µM [rising, full curve]","0.411 µM [rising, partial curve, poor fit]"
NC(=O)/C(=N\OC(=O)c1ccco1)c1nc(-c2ccc(Br)cc2)cs1,1.38%,,"2.06 µM [rising, partial curve, poor fit]"
COc1cc(NC(=O)CSc2ncnc3sc4c(c23)CCC(C)C4)c(C(=O)O)cc1OC (stereo not drawn),4.96%,"0.58 µM [falling, single point]",

Compound,cell number change,AC50 [1],AC50 [2]
CN(C)C(=O)CSc1nnc(-c2ccc(F)cc2)c2ccccc12,21.4%,"1.64 µM [rising, full curve, poor fit]",
COCCSc1nnc(NC(=O)C2CC(=O)N(c3ccc(C)cc3)C2)s1 (stereo not drawn),-20.7%,,
c1ccc(Oc2cccc(OCCCn3cncn3)c2)cc1,-13.6%,"6.51 µM [rising, partial curve, poor fit]",
NS(=O)(=O)c1ccc(CCNc2nc(CN3CCOCC3)nc3sc4c(c23)CCC4)cc1,-10.2%,,
CCOc1ccc2c(CC)cc(=O)oc2c1OCC,26.4%,"2.91 µM [rising, partial curve]",
CCOC(=O)c1cc2sccc2n1CC(=O)Nc1ccc(OC)cc1OC,121%,"10.3 µM [rising, partial curve]","8.2 µM [rising, partial curve]"
O=C(/C=C/c1ccc(F)cc1)NCCNC(=O)/C=C/c1ccc(F)cc1,-3.43%,"0.231 µM [falling, partial curve]",
O=C(NCCc1ccc(Cl)cc1)C1CCCN(S(=O)(=O)N2CCCCCC2)C1 (stereo not drawn),19.9%,,"0.0461 µM [rising, full curve, poor fit]"
CCC(=O)N1CCc2cc(S(=O)(=O)CCC(=O)NCCc3ccccc3)ccc21,,"6.51 µM [falling, single point]","6.51 µM [falling, single point]"
Cc1occc1-c1nnc(SCC(=O)N2CCN(c3ccccc3F)CC2)n1C,-6.58%,"11.6 µM [rising, partial curve, poor fit]","0.13 µM [rising, full curve, poor fit]"
COc1ccc(/C(O)=C2/C(=O)C(=O)N(c3ncccn3)C2c2ccc(OC)cc2)cc1 (stereo not drawn),-33%,"3.66 µM [falling, full curve]","20.6 µM [falling, single point]"
Cc1ccccc1CSc1nnc(-c2ccccc2)c(=O)[nH]1,2.05%,,"0.651 µM [falling, single point]"
COc1ccc(Cl)cc1NC(=S)NCc1ccco1,18.8%,"29.1 µM [rising, single point]",
O=C(N/N=C/c1ccc(OC(=O)c2cccs2)cc1)c1ccccn1,-2.48%,"29.1 µM [rising, single point]",
CCC1Sc2ccc(S(=O)(=O)CCC(=O)NCc3ccco3)cc2NC1=O (stereo not drawn),-7.58%,,
COc1cccc(-c2ccc(-c3noc(-c4cccs4)n3)c(OC)n2)c1,26.8%,"0.58 µM [falling, single point]",
Cc1cc(N2CCN(C)CC2)nc(=S)[nH]1,-0.611%,,
CCOc1ccccc1C(=O)NCC(=O)OCC(=O)c1ccc2c(c1)OCCO2,2.94%,"5.17 µM [rising, full curve, poor fit]",
Cc1cc(C)n(Cc2ccc(Cl)c(Cl)c2)c(=O)c1S(=O)(=O)c1ccccc1,9.25%,"6.51 µM [rising, single point]",
Cn1c(=O)oc2cc(S(=O)(=O)Nc3ccc(Cl)cc3)ccc21,-20.1%,"29.1 µM [falling, single point]",
Cc1cccc2c1nc(-c1ccccc1)n1cnnc21,,"0.58 µM [rising, full curve]","0.461 µM [rising, full curve]"

# Of the compounds above, 2 have a cyano group.
Compound,cell number change,AC50 [1],AC50 [2]
Cc1ccc(C2C(C#N)=C(N)Oc3n[nH]c(-c4cccs4)c32)cc1 (stereo not drawn),-48.8%,"16.4 µM [falling, single point]","14.6 µM [falling, partial curve]"
N#CC1=C(N)Oc2cc(N)ccc2C1c1ccccc1Cl (stereo not drawn),-4.21%,,
